Reference: patent US6989256
No constants are given. Whether binding was seen depends on the method and setting. Binding seen in cells or lysates may run through a third protein. Some entries that bind do so weakly or less than the wild type. Where a sequence is shown, tags or fusion partners need not be part of it.

Sequences of proteins named here, by UniProt entry; tags and fusion partners are left off.
UniProt P05453: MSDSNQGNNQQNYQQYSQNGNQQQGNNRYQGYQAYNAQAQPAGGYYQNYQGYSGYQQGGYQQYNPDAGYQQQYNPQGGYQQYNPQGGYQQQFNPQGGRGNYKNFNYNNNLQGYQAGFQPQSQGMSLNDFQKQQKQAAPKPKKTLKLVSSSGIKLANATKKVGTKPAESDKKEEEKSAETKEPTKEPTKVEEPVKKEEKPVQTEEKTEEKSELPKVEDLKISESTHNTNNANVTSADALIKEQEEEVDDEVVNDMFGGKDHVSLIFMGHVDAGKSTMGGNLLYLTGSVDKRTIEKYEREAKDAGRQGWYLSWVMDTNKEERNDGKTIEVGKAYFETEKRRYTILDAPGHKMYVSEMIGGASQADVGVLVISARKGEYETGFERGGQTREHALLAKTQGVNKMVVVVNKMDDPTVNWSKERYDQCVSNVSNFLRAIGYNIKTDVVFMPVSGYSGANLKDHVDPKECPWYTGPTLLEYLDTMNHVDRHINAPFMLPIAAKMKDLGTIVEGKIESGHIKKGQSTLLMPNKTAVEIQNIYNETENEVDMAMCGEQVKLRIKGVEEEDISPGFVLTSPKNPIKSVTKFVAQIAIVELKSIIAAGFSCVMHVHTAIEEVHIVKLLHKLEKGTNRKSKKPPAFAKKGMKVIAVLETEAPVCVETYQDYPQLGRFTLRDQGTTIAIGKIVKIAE

Key:
[1] = target: GST-eRF3 (yeast (S. cerevisiae)) (UniProt P05453); experiment: GST pull-down from yeast cytoplasmic extract, anti-FLAG immunoblot
[2] = target: GST-eRF3 (yeast (S. cerevisiae)) (UniProt P05453); experiment: GST pull-down from yeast cytoplasmic extract, anti-FLAG immunoblot (figure legend)
[3] = target: GST-eRF3 (yeast (S. cerevisiae)) (UniProt P05453); experiment: GST pull-down from yeast cytoplasmic extract, anti-FLAG immunoblot (discussion of Example 1)

binding [1]: binds | binding [2]: binds | binding [3]: binds
B1: FLAG epitope-tagged Mtt1p (enzyme, yeast (S. cerevisiae), UniProt P32644 1-1121, looked up, not shown: small tags and cut ends)
chain: MDFQCRTCSQAYDAEQMMKHLSSTRHKTVFDTSNDEDICCEECQDKNIHQLQIIRFGGEDMVLLCNSCFRKEYSETERPSTSYSLQNGSILKFWEKYVKVRECCCDECGEESNLNANRNGEVLCDKCLPKSNRAKDFVSEKSGRFLYIYLGLNETQNSTRKPRKKGGRRVGRGKKGRKGAKIKKEKKETFEAKISRIAYEVKKENSTIQSSSSSNLRNFKGFKAVESDPVVAAKVSKSETSRSNPGPSNRNKGKGNKANHKKNSGNGIGKEKERKTNIRNNVRNSQPIPEDRKNTNSHVTTNSGGKGKNESVDKHQLPQPKALNGNGSGSTNTTGLKKGKKDHAGQKTKGNDKTGNKNPREAKLNSAGRKNALGKKSNNQPNKGTSRWTIGSDTESSREPSISPNENTTSITKSRNRNKKASKPTLNEKSKTTTMPKKLETKNQEKNNGKTKDGKLIYEEGEPLTRYNTFKSTLSYPDLNTYLNDYSFALFLEQKLENEFVQNFNILWPRNEKDTAFIINVEKNNNSELEKLLPANLLALGRPAFNERQPFFFCTQDEQKVWYIFIKELSIQRGKYVLLVELFSWNNLSLPTKNGSSQFKLLPTSAQTSRILFAMTRITNPKFIDLLLGQKPIKEIYFDNRLKFSSDKLNRSQKTAVEHVLNNSITILQGPPGTGKTSTIEEIIIQVIERFHAFPILCVAASNIAIDNIAEKIMENRPQIKILRILSKKKEQQYSDDHPLGEICLHNIVYKNLSPDMQVVANKTRRGEMISKSEDTKFYKEKNRVTNKVVSQSQIIFTTNIAAGGRELKVIKECPVVIMDEATQSSEASTLVPLSLPGIRNFVFVGDEKQLSSFSNIPQLETSLFERVLSNGTYKNPLMLDTQYRMHPKISEFPIKKIYNGELKDGVTDEQKAWPGVQHPLFFYQCDLGPESRVRSTQRDIVGFTYENKHECVEIVKIIQILMLDKKVPLEEIGVITPYSAQRDLLSDILTKNVVINPKQISMQQEYDEIELFNAAGSQGTAGSLQNNVINIINGLHVATVDSFQGHEKSFIIFSCVRNNTENKIGFLRDKRRLNVALTRAKHGLIVVGNKNVLRKGDPLWKDYITYLEEQEVIFTDLTAY
